In publication PMC4703070:
The exact form of at least one protein or probe is not confirmed. A negative result means that nothing was seen under these conditions.

Amino acid sequences for entries named in this document (tags omitted). A change or cut given only in a name is not applied to a line headed by its entry.
UniProt P10443: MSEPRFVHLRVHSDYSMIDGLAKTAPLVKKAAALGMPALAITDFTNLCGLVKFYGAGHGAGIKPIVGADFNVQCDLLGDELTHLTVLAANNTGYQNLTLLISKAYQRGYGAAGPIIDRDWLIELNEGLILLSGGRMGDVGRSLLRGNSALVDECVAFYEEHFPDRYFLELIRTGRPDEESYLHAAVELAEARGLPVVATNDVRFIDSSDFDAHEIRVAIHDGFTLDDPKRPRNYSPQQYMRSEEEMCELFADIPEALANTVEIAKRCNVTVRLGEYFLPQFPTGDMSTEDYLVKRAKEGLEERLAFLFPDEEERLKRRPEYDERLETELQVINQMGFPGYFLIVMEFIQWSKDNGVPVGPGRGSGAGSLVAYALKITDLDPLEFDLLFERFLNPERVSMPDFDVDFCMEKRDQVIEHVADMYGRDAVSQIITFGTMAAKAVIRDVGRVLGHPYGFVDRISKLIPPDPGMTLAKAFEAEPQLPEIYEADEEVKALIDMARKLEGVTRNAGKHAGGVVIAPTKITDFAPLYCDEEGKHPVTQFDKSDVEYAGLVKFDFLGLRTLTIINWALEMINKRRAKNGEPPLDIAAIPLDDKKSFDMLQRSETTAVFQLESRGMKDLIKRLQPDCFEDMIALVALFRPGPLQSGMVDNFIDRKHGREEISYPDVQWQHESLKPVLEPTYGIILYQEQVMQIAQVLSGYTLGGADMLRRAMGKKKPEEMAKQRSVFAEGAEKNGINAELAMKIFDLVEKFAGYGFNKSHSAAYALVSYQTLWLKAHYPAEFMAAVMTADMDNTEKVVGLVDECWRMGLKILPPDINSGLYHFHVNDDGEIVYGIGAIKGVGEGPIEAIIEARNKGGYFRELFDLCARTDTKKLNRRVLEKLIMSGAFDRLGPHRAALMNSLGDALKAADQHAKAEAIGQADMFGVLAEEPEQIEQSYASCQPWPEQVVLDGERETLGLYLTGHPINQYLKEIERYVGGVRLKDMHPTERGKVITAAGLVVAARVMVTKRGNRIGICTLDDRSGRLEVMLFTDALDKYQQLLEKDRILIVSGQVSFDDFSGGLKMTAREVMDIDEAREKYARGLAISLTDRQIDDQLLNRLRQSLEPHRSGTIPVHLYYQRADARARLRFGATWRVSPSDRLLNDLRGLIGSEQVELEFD

Target: Pol IIIα (alone, EMSA) (Escherichia coli) (UniProt P10443)
Assay: EMSA
Details: 2.5 μM protein, 5 nM DNA, text: surprisingly low affinity; phosphorothioate at 3' terminal bond (primer; strand implied); EMSA: 20 mM Tris pH 7.5, 4% glycerol, 5 mM DTT, 40 μg/ml BSA, 40 mM K glutamate, 10 min room temperature, native 6% gel; recombinant protein; label: 6-FAM at 5' end of primer strand

“TCAGGAGTCCTTCGTCCTAGTACTACTCC / GGAGTAGTACTAGGACGAAGGACTC [25 bp primer-template with 4 nt overhang (EMSA)]”: no binding.
